Experimental findings from publication PMC5074805 are described below.

The assay deals with 30S ribosomal protein S20 (RPS20) from Thermus thermophilus (Thermus thermophilus) (UniProt P80380). Kind of assay: SEC-MALS; static light scattering: Superdex S200 gel size exclusion column coupled to a miniDAWN Tristar laser photometer and a differential refractometer; buffer A (50 mM Tris pH 8, 150 mM NaCl); both purified. (SEC sorts molecules by how far they enter the pores of the column.)

These are yes or no findings as the source states them, for the method shown.

B1: 30S ribosomal protein S20 (RPS20) from Thermus thermophilus (protein, UniProt P80380 1-106)
chain: MAQKKPKRNLSALKRHRQSLKRRLRNKAKKSAIKTLSKKAIQLAQEGKAEEALKIMRKAESLIDKAAKGSTLHKNAAARRKSRLMRKVRQLLEAAGAPLIGGGLSA
On to B1, for which the binding result is “no binding”.
